From the supplement of paper PMC4604168 (melanoma cell lines)
The other results are listed elsewhere or left out. Many values rest on one well or one pass, so single values are uncertain.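 Cells were imaged in 1,536-well plates, and nuclei stained with an antibody against cleaved PARP were counted against all DNA-stained nuclei to give the apoptosis fraction. Screening doses were chosen to leave most cells alive, and resting and induced cleaved-PARP levels differ strongly between cell lines.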

What was measured:
Test in all cases: cleaved PARP positive nuclei fraction relative to DMSO control; melanoma cells; higher = more apoptosis
Conditions in all cases: library dose: low library concentration; 72 h
MZ2-MEL = tested on: MZ2-MEL
MeWo = tested on: MeWo
RPMI7951 = tested on: RPMI7951
RVH-421 = tested on: RVH-421
SkMel28 = tested on: SkMel28
SkMel2 = tested on: SkMel2
SkMel30 = tested on: SkMel30
SkMel5 = tested on: SkMel5
UACC257 = tested on: UACC257
UACC62 = tested on: UACC62
WM115 = tested on: WM115
WM1716 = tested on: WM1716
WM1745 = tested on: WM1745
WM3526 = tested on: WM3526
WM3619 = tested on: WM3619
WM451Lu = tested on: WM451Lu

SMILES | cleaved PARP positive nuclei fraction (MZ2-MEL) | cleaved PARP positive nuclei fraction (MeWo) | cleaved PARP positive nuclei fraction (RPMI7951) | cleaved PARP positive nuclei fraction (RVH-421) | cleaved PARP positive nuclei fraction (SkMel28) | cleaved PARP positive nuclei fraction (SkMel2) | cleaved PARP positive nuclei fraction (SkMel30) | cleaved PARP positive nuclei fraction (SkMel5) | cleaved PARP positive nuclei fraction (UACC257) | cleaved PARP positive nuclei fraction (UACC62) | cleaved PARP positive nuclei fraction (WM115) | cleaved PARP positive nuclei fraction (WM1716) | cleaved PARP positive nuclei fraction (WM1745) | cleaved PARP positive nuclei fraction (WM3526) | cleaved PARP positive nuclei fraction (WM3619) | cleaved PARP positive nuclei fraction (WM451Lu)
N#CC[C@H](C1CCCC1)n1cc(-c2ncnc3[nH]ccc23)cn1 [ruxolitinib] + COc1ccc(-c2ccc3c(N4CCOCC4)nc(N4C[C@@H](C)O[C@@H](C)C4)nc3n2)cc1CO [KU0063794] (first compound 1 µM, partner dose 0.02 µM) | 204% | 322% | 164% | 162% | 177% | 75.2% | 42.6% | 71.5% | 222% | 70.6% | 55% | 37.6% | 99.3% | 70.7% | 113% | 144%
O=C(Nc1cc(C(F)(F)F)cc(C(F)(F)F)c1)c1cc(Cl)ccc1O + CCc1ccc(CCOc2ccc(CC3SC(=O)NC3=O)cc2)nc1 [pioglitazone] (first compound 0.016 µM, partner dose 2 µM) | 168% | 45.7% | 46.6% | 126% | 53.4% | 173% | 374% | 74.1% | 50.5% | 49.2% | 71.4% | 30.1% | 104% | 69.1% | 108% | 160%
Cc1cn(-c2cc(NC(=O)c3ccc(C)c(Nc4nccc(-c5cccnc5)n4)c3)cc(C(F)(F)F)c2)cn1 [nilotinib] + Oc1nc(-c2ccc(C(F)(F)F)cc2)nc2c1CSCC2 [XAV939] (first compound 0.2 µM, partner dose 2 µM) | 73.1% | 102% | 154% | 91.2% | 63.7% | 134% | 65.7% | 92.3% | 106% | 156% | 108% | 154% | 115% | 64.2% | 108% | 63.1%
COc1cc([C@@H]2c3cc4c(cc3[C@@H](O[C@@H]3O[C@@H]5CO[C@@H](C)O[C@H]5[C@H](O)[C@H]3O)[C@H]3COC(=O)[C@H]23)OCO4)cc(OC)c1O [etoposide] + NC(=O)Nc1cc(-c2cccc(F)c2)sc1C(=O)N[C@H]1CCCNC1 [AZD7762] (first compound 0.02 µM, partner dose 0.02 µM) | 91.6% | 115% | 175% | 36.8% | 63.5% | 121% | 68% | 124% | 87.2% | 120% | 220% | 154% | 106% | 63.7% | 242% | 118%
COc1cc([C@@H]2c3cc4c(cc3[C@@H](O[C@@H]3O[C@@H]5CO[C@@H](C)O[C@H]5[C@H](O)[C@H]3O)[C@H]3COC(=O)[C@H]23)OCO4)cc(OC)c1O [etoposide] + O=C(O)C(=O)Nc1sc2c(c1C(=O)O)CCNC2 [TCS401] (first compound 0.02 µM, partner dose 1.66667 µM) | 106% | 71.8% | 118% | 14.5% | 10.2% | 54.6% | 33.8% | 38.4% | 13.6% | 117% | 117% | 42.9% | 93.9% | 38.6% | 92.1% | 16.3%
O=C(Nc1cc(C(F)(F)F)cc(C(F)(F)F)c1)c1cc(Cl)ccc1O + CC(C)CCN1c2nc(Nc3cc(F)c(O)c(F)c3)ncc2N(C)C(=O)C1C [BID1870] (first compound 0.016 µM, partner dose 0.2 µM) | 99.1% | 184% | 246% | 141% | 120% | 61.8% | 206% | 150% | 130% | 88.4% | 170% | 141% | 151% | 346% | 72.1% | 198%
Cc1cc(Nc2cc(N3CCN(C)CC3)nc(Sc3ccc(NC(=O)C4CC4)cc3)n2)n[nH]1 [Tozasertib] + Cn1cc(/C=C2\C(=O)Nc3cccnc32)c2ccccc21 [GW441756] (first compound 0.006 µM, partner dose 0.4 µM) | 131% | 171% | 229% | 116% | 131% | 20.7% | 78.5% | 178% | 120% | 94.1% | 142% | 37.7% | 266% | 77.1% | 102% | 296%
O=C(Nc1cc(C(F)(F)F)cc(C(F)(F)F)c1)c1cc(Cl)ccc1O + CN(NC(=O)CC(=O)NN(C)C(=S)c1ccccc1)C(=S)c1ccccc1 [STA4783] (first compound 0.016 µM, partner dose 0.006 µM) | 24.1% | 49.3% | 33.9% | 39.9% | 60.3% | 53.7% | 77.9% | 34.7% | 96% | 97.5% | 172% | 249% | 226% | 153% | 109% | 116%
O=C(Nc1cc(C(F)(F)F)cc(C(F)(F)F)c1)c1cc(Cl)ccc1O + CN(C)S(=O)(=O)c1ccc2c(c1)/C(=C/c1cc3c([nH]1)CCCC3)C(=O)N2 [SU6656] (first compound 0.016 µM, partner dose 0.4 µM) | 111% | 82.3% | 46.2% | 86.8% | 219% | 83.8% | 55.9% | 207% | 264% | 230% | 260% | 152% | 95.9% | 81.9% | 80.3% | 566%
CC[C@]1(O)C[C@H]2CN(CCc3c([nH]c4ccccc34)[C@@](C(=O)OC)(c3cc4c(cc3OC)N(C=O)[C@H]3[C@@](O)(C(=O)OC)[C@H](OC(C)=O)[C@]5(CC)C=CCN6CC[C@]43[C@@H]65)C2)C1 [vincristine] + Cn1cc(/C=C2\C(=O)Nc3cccnc32)c2ccccc21 [GW441756] (first compound 0.0001 µM, partner dose 0.4 µM) | 121% | 146% | 297% | 141% | 168% | 25.6% | 387% | 50.3% | 203% | 230% | 493% | 70.5% | 97.4% | 105% | 98.8% | 84.9%
O=C(Nc1cc(C(F)(F)F)cc(C(F)(F)F)c1)c1cc(Cl)ccc1O + NCC(=O)Nc1ccc(-n2nc(C(F)(F)F)cc2-c2ccc3c(ccc4ccccc43)c2)cc1 [OSU03012] (first compound 0.016 µM, partner dose 1 µM) | 131% | 88.3% | 97.5% | 105% | 316% | 321% | 130% | 149% | 65.3% | 86.8% | 140% | 77.9% | 78.7% | 115% | 88.4% | 95.8%
Cc1cn(-c2cc(NC(=O)c3ccc(C)c(Nc4nccc(-c5cccnc5)n4)c3)cc(C(F)(F)F)c2)cn1 [nilotinib] + Oc1cc(-c2nc(-c3ccccc3)[nH]c2-c2ccncc2)ccc1Cl [L779450] (first compound 0.2 µM, partner dose 0.2 µM) | 38.9% | 98.7% | 40.7% | 149% | 305% | 3820% | 151% | 140% | 137% | 197% | 130% | 95.7% | 92.6% | 84.8% | 82.1% | 130%
CC[C@]1(O)C[C@H]2CN(CCc3c([nH]c4ccccc34)[C@@](C(=O)OC)(c3cc4c(cc3OC)N(C=O)[C@H]3[C@@](O)(C(=O)OC)[C@H](OC(C)=O)[C@]5(CC)C=CCN6CC[C@]43[C@@H]65)C2)C1 [vincristine] + O=C(Nc1cccc(Cl)c1)Nc1ncc(CCNc2ncnc3ccsc23)s1 [SNS314] (first compound 0.0001 µM, partner dose 0.0008 µM) | 277% | 141% | 106% | 108% | 99.8% | 63.3% | 99.1% | 358% | 275% | 241% | 1080% | 265% | 112% | 41.2% | 156% | 113%
CCCCCCCCCCCCCCCCCCOP(=O)([O-])OC1CC[N+](C)(C)CC1 [Perifosine] + COC(=O)c1sccc1S(=O)(=O)Nc1ccc(Nc2ccccc2)cc1OC [GSK0660] (first compound 0.4 µM, partner dose 1 µM) | 98.1% | 247% | 74.2% | 144% | 232% | 59.2% | 112% | 162% | 184% | 108% | 48.7% | 100% | 90.6% | 73.3% | 88% | 132%
Cc1cc(Nc2cc(N3CCN(C)CC3)nc(Sc3ccc(NC(=O)C4CC4)cc3)n2)n[nH]1 [Tozasertib] + COc1ccc(COc2ccc(Cc3cnc(N)nc3N)cc2OC)cc1 [GW2580] (first compound 0.006 µM, partner dose 1 µM) | 189% | 39.8% | 37.4% | 43% | 140% | 78% | 40.4% | 72.9% | 134% | 264% | 192% | 149% | 97.3% | 486% | 108% | 269%
Cc1ccc(Nc2nccc(N(C)c3ccc4c(C)n(C)nc4c3)n2)cc1S(N)(=O)=O [Pazopanib] + NCC(=O)Nc1ccc(-n2nc(C(F)(F)F)cc2-c2ccc3c(ccc4ccccc43)c2)cc1 [OSU03012] (first compound 0.4 µM, partner dose 1 µM) | 90.8% | 171% | 52.3% | 84.2% | 59.4% | 162% | 138% | 75.9% | 127% | 83% | 208% | 104% | 73.5% | 468% | 202% | 149%
Cc1ccc(Nc2nccc(N(C)c3ccc4c(C)n(C)nc4c3)n2)cc1S(N)(=O)=O [Pazopanib] + CCN(CC)CCCCNc1ncc2cc(-c3cc(OC)cc(OC)c3)c(NC(=O)NC(C)(C)C)nc2n1 [PD173074] (first compound 0.4 µM, partner dose 0.1 µM) | 105% | 72.2% | 77.1% | 81.8% | 178% | 95.9% | 70.9% | 93.8% | 159% | 59.6% | 63% | 110% | 89.5% | 233% | 109% | 68.8%

Just cleaved PARP positive nuclei fraction (SkMel28), cleaved PARP positive nuclei fraction (WM3526) and cleaved PARP positive nuclei fraction (MZ2-MEL) (2 entries from above):
SMILES	cleaved PARP positive nuclei fraction (SkMel28)	cleaved PARP positive nuclei fraction (WM3526)	cleaved PARP positive nuclei fraction (MZ2-MEL)
O=C(Nc1cc(C(F)(F)F)cc(C(F)(F)F)c1)c1cc(Cl)ccc1O + CCc1ccc(CCOc2ccc(CC3SC(=O)NC3=O)cc2)nc1 [pioglitazone] (first compound 0.016 µM, partner dose 2 µM)	53.4%	69.1%	168%
Cc1cn(-c2cc(NC(=O)c3ccc(C)c(Nc4nccc(-c5cccnc5)n4)c3)cc(C(F)(F)F)c2)cn1 [nilotinib] + Oc1nc(-c2ccc(C(F)(F)F)cc2)nc2c1CSCC2 [XAV939] (first compound 0.2 µM, partner dose 2 µM)	63.7%	64.2%	73.1%
